Data from PMC7819943, “Rice protein-binding microarrays: a tool to detect cis-acting elements near promoter regions in rice”.
Some of the results follow.

The chains behind the UniProt entries cited, without tags or fusion partners.
UniProt Q0JBA9, entry or part of it: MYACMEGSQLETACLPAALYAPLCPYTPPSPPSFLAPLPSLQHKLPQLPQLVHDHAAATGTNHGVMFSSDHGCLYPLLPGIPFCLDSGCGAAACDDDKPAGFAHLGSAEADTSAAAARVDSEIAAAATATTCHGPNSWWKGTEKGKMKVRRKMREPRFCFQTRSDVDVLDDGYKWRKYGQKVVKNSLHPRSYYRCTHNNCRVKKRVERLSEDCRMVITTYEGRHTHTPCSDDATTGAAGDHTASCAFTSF

Biological target: OsWRKY34 (Oryza sativa, UniProt Q0JBA9 1-250)
Test: protein-binding microarray (RPBM); PBS, 2% BSA, 51.3 ng/ul salmon testes DNA, 50 uM zinc acetate, 200 nM TF, 25 C, 1 h; high values mean tight binding
Conditions: protein: recombinant; tags: N-terminal polyhistidine and DsRed monomer fusion (pET32a); label: CyDye5-dUTP incorporated in the synthesized complementary strand; 3' TTTTT single-stranded linker to array surface; dsDNA, one strand shown
Summary of the method: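 Ni–NTA purification followed expression in E. coli BL21-CodonPlus of transcription factors fused N-terminally to a polyhistidine tag and DsRed. At 200 nM in PBS with 2% BSA, salmon testes DNA and 50 µM zinc acetate, the protein was incubated for 1 h at 25 °C with a custom Agilent array that had been primer-extended with Cy5-dUTP and blocked with 2% BSA. After washing, the array was read on an Axon 4000B scanner. The binding signal is per-feature fluorescence intensity in arbitrary units.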

Row | Sequence | binding signal
1 | AATTCCCCGTTGCTATACCGGATTCGGTTCTTCTCGCCGACGGAGTCACCTAGTGCAG | 8620 fluorescence intensity (a.u.)
2 | TCGTAGTATCACACACTTCACACCACGTCACCACGCCCTCCGGAGTCACCTAGTGCAG | 8110 fluorescence intensity (a.u.)
3 | CTCTCTCTCTCTCTCTCTGCCTCGGCGACCTCGCCTCCGCCGGAGTCACCTAGTGCAG | 10800 fluorescence intensity (a.u.)
4 | AGGTCTTTGTCTGATGGTGTATTAATAATCCATCAGGTTTCGGAGTCACCTAGTGCAG | 8980 fluorescence intensity (a.u.)
5 | CCGCGTGCTTCTCTTCCTCGCTCACTCCTCCTCGCGTCCTCGGAGTCACCTAGTGCAG | 9770 fluorescence intensity (a.u.)
6 | ACCACCCAGGCATCATCCCGCTCGCCGTCCGCGACGTCTTCGGAGTCACCTAGTGCAG | 10800 fluorescence intensity (a.u.)
7 | TTTTCACACCAGCATTTAGCAGCATTTCTTCTCTTTGCAACGGAGTCACCTAGTGCAG | 8650 fluorescence intensity (a.u.)
8 | CTTTTCTGTCACATCGTTTCAATTTCAATCAAATTTTCAACGGAGTCACCTAGTGCAG | 9910 fluorescence intensity (a.u.)
9 | GCAGGGTCTCACCAACTCGCGTCACCCGCCGACGACCCCACGGAGTCACCTAGTGCAG | 9270 fluorescence intensity (a.u.)
10 | TTTTTTTCTGGGTTCGCCACTGTCTCTACCCAATCCTATACGGAGTCACCTAGTGCAG | 9020 fluorescence intensity (a.u.)
11 | GATATTTTTGGATGGAGGGAGTATTAAACTCTACGATAAACGGAGTCACCTAGTGCAG | 8140 fluorescence intensity (a.u.)
12 | ACAAACCCGACCTTGAACTCGAAACAGGCGCACATCCCACCGGAGTCACCTAGTGCAG | 8560 fluorescence intensity (a.u.)
13 | ACACTAAAGCTGATCCATCTTAATGTACAATGGGTTTTCTCGGAGTCACCTAGTGCAG | 9090 fluorescence intensity (a.u.)
14 | ACGTGGTTGGTTTGACTAGATCTTCGTCCCACGTGGCATTCGGAGTCACCTAGTGCAG | 8320 fluorescence intensity (a.u.)
15 | TTGACATTTCACGCGATTTCTCTCTCCTCTTCAACCGGAACGGAGTCACCTAGTGCAG | 8900 fluorescence intensity (a.u.)
16 | AAAACCGCAATATTACTCCATCACTCGAACTCTGATCCGACGGAGTCACCTAGTGCAG | 8190 fluorescence intensity (a.u.)
17 | AGTACAGCCTGTTAGGTCACATCTTGTGTTTCTTTATTTTCGGAGTCACCTAGTGCAG | 11700 fluorescence intensity (a.u.)
18 | GCTCGCTTTTTTTTTTTTCTGTTTCTTCGTTTCTCTTCCCCGGAGTCACCTAGTGCAG | 11000 fluorescence intensity (a.u.)
19 | TTGTTTTTTTTTTTTTGACCTTTTGTTCCCGTTCTCCATACGGAGTCACCTAGTGCAG | 10800 fluorescence intensity (a.u.)
20 | ACACTACACTAATCTCTACTTTACCACACCCTACAATATACGGAGTCACCTAGTGCAG | 8940 fluorescence intensity (a.u.)
21 | ATGTACTACCGTTTATATAATCATATTCTTTGTCGTCTGACGGAGTCACCTAGTGCAG | 8540 fluorescence intensity (a.u.)

Row | Sequence | binding signal
22 | ATCTCTCTCTCTCTCTCTCTCTCTCTCTCTCTCTCTCTCTCGGAGTCACCTAGTGCAG | 14200 fluorescence intensity (a.u.)
23 | TTTTGCGGTTCGAGGACGTTTTTTATCTCGCTGACAAGTTCGGAGTCACCTAGTGCAG | 9080 fluorescence intensity (a.u.)
24 | TGCTTGATTTGACCATCCTACATATATTTCAGAATGGTTCCGGAGTCACCTAGTGCAG | 8700 fluorescence intensity (a.u.)
25 | AATGGGTGTTTTTTTAGTTGTTGTGTGTGTTTGGACGATTCGGAGTCACCTAGTGCAG | 10400 fluorescence intensity (a.u.)
26 | AATCTCCCGTATCGTCTCCTCCGCTCCTTGCGCCATCTCGCGGAGTCACCTAGTGCAG | 8790 fluorescence intensity (a.u.)
27 | ACACACACACACACACACACACATATATATATATATATATCGGAGTCACCTAGTGCAG | 12000 fluorescence intensity (a.u.)
28 | AAGGTTCGTTTCATTTTTTTTTACTTAATTAACTATTCCTCGGAGTCACCTAGTGCAG | 8740 fluorescence intensity (a.u.)
29 | CATCATAACTCCATGACGGTTGCTTAGTTGCCCTACAACCCGGAGTCACCTAGTGCAG | 9400 fluorescence intensity (a.u.)
30 | GCCCACCGCTTCCATCGTTCGTCCTCGTCTCCACGCTACCCGGAGTCACCTAGTGCAG | 13600 fluorescence intensity (a.u.)
31 | TTTTTCGTGTTTGCGTCGCATCCTAATCATAGCTTAAATCCGGAGTCACCTAGTGCAG | 9560 fluorescence intensity (a.u.)
32 | ACGCAGCTTGCCATGATGCCCAAGACGTCCACCACAAGTACGGAGTCACCTAGTGCAG | 10600 fluorescence intensity (a.u.)
33 | GGCAACCACGTAATTCCCTCCCTTTTCAGTTACTCATCAACGGAGTCACCTAGTGCAG | 9620 fluorescence intensity (a.u.)
34 | TACACACACAAACTTCCAACTTTTTCATCATATCGTTCCACGGAGTCACCTAGTGCAG | 8760 fluorescence intensity (a.u.)
35 | CCACACAAGTCACTTTTCTAGCTGCATCTACCCTCTAATCCGGAGTCACCTAGTGCAG | 9250 fluorescence intensity (a.u.)
36 | AATCTTGTACTTCATTTGTCTACAGTTTCAACTCTCTTTTCGGAGTCACCTAGTGCAG | 10000 fluorescence intensity (a.u.)
37 | GTTGTCCGCAGTTTCAGGTGCTTTGTAGTGTAGTTTAGTTCGGAGTCACCTAGTGCAG | 9440 fluorescence intensity (a.u.)
38 | CTTTATCTATTTATTCTTCCCCTGGTGTTCCTTCGTCTGTCGGAGTCACCTAGTGCAG | 9390 fluorescence intensity (a.u.)
39 | ACCTGTGCCGGCCGCCGAGCTCGTTGCCTCTCTCGCCGGCCGGAGTCACCTAGTGCAG | 10100 fluorescence intensity (a.u.)
40 | ATTTCGGCTGAGCTAATTTATCGTTATCTGTTAACACATTCGGAGTCACCTAGTGCAG | 10200 fluorescence intensity (a.u.)
41 | CCCTATTTCTCTCCACCACAATTATCATCTTCTTTTTTTTCGGAGTCACCTAGTGCAG | 8630 fluorescence intensity (a.u.)
42 | CCACGAGCGCCTGCGTCATCCCGTCTCATCGCGAGTCACCCGGAGTCACCTAGTGCAG | 9100 fluorescence intensity (a.u.)

Reformatted in markdown: part of the list above.

| Row | Sequence | binding signal |
| --- | --- | --- |
| 25 | AATGGGTGTTTTTTTAGTTGTTGTGTGTGTTTGGACGATTCGGAGTCACCTAGTGCAG | 10400 fluorescence intensity (a.u.) |
| 39 | ACCTGTGCCGGCCGCCGAGCTCGTTGCCTCTCTCGCCGGCCGGAGTCACCTAGTGCAG | 10100 fluorescence intensity (a.u.) |
